Assay results taken from paper doi:10.1101/2020.01.04.893909 (bioRxiv, 2020).

Amino acid sequences for entries named in this document (tags omitted).
UniProt Q02821: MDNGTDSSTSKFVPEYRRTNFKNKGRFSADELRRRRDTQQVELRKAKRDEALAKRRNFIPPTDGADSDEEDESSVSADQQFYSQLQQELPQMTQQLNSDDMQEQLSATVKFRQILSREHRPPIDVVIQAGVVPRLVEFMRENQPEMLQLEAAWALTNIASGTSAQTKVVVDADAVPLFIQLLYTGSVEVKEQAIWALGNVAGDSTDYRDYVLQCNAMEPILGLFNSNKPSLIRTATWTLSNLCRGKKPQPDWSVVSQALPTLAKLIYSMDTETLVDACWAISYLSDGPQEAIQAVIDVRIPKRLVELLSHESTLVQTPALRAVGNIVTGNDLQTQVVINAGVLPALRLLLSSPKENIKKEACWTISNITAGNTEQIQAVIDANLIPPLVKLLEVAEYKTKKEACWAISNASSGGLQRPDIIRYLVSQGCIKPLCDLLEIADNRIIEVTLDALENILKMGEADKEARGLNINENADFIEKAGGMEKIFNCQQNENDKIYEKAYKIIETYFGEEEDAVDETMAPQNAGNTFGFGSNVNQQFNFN
UniProt P21827: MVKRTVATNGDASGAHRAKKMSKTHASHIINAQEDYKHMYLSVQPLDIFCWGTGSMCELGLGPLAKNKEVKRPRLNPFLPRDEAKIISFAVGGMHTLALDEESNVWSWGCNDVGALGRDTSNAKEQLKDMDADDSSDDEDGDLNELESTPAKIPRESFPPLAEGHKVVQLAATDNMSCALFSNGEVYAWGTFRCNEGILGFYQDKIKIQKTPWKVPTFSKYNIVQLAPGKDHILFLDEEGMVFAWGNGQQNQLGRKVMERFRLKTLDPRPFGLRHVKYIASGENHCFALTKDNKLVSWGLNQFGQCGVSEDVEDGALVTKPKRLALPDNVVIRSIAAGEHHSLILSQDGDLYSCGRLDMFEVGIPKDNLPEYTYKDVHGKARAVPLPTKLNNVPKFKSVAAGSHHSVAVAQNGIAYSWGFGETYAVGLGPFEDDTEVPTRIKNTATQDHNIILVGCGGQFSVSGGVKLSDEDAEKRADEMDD
UniProt Q03433: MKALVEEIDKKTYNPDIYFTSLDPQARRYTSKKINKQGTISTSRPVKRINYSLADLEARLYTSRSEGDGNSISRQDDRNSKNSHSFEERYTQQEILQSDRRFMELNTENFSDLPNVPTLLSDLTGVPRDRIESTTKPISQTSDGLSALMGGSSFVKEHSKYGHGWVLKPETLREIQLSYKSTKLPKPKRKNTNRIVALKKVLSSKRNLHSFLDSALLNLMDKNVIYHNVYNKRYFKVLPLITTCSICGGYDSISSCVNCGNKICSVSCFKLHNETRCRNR
UniProt Q06142: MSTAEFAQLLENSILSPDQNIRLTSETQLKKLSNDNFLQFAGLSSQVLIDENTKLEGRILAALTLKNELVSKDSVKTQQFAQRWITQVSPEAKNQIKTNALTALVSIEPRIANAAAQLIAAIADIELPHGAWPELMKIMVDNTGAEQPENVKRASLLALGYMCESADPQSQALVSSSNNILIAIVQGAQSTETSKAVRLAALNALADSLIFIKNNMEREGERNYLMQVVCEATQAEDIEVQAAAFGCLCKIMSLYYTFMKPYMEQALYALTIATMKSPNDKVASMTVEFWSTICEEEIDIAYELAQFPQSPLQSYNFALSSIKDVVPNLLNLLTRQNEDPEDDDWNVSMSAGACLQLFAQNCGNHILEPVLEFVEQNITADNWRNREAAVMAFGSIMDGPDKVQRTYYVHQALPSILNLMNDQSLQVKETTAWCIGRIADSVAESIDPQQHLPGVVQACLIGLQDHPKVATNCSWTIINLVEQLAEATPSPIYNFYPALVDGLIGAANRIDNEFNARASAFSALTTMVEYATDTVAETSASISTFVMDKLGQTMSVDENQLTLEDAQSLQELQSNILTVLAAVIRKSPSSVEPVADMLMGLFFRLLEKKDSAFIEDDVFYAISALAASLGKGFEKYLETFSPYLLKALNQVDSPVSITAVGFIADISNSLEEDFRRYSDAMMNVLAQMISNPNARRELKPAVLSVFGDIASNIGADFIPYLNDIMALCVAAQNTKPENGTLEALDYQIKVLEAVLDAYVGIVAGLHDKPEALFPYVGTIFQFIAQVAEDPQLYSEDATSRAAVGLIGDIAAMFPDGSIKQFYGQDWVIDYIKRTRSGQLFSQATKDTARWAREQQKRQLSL

B1: S. cerevisiae homologue of GAP (Rna1), recombinant (natural protein, UniProt P11745 1-407, looked up)
chain: MATLHFVPQHEEEQVYSISGKALKLTTSDDIKPYLEELAALKTCTKLDLSGNTIGTEASEALAKCIAENTQVRESLVEVNFADLYTSRLVDEVVDSLKFLLPVLLKCPHLEIVNLSDNAFGLRTIELLEDYIAHAVNIKHLILSNNGMGPFAGERIGKALFHLAQNKKAASKPFLETFICGRNRLENGSAVYLALGLKSHSEGLKVVKLYQNGIRPKGVATLIHYGLQYLKNLEILDLQDNTFTKHASLILAKALPTWKDSLFELNLNDCLLKTAGSDEVFKVFTEVKFPNLHVLKFEYNEMAQETIEVSFLPAMEKGNLPELEKLEINGNRLDEDSDALDLLQSKFDDLEVDDFEEVDSEDEEGEDEEDEDEDEKLEEIETERLEKELLEVQVDDLAERLAETEIK
B2: Pse1 (protein, UniProt P32337 1-1089)
chain: MSALPEEVNRTLLQIVQAFASPDNQIRSVAEKALSEEWITENNIEYLLTFLAEQAAFSQDTTVAALSAVLFRKLALKAPPSSKLMIMSKNITHIRKEVLAQIRSSLLKGFLSERADSIRHKLSDAIAECVQDDLPAWPELLQALIESLKSGNPNFRESSFRILTTVPYLITAVDINSILPIFQSGFTDASDNVKIAAVTAFVGYFKQLPKSEWSKLGILLPSLLNSLPRFLDDGKDDALASVFESLIELVELAPKLFKDMFDQIIQFTDMVIKNKDLEPPARTTALELLTVFSENAPQMCKSNQNYGQTLVMVTLIMMTEVSIDDDDAAEWIESDDTDDEEEVTYDHARQALDRVALKLGGEYLAAPLFQYLQQMITSTEWRERFAAMMALSSAAEGCADVLIGEIPKILDMVIPLINDPHPRVQYGCCNVLGQISTDFSPFIQRTAHDRILPALISKLTSECTSRVQTHAAAALVNFSEFASKDILEPYLDSLLTNLLVLLQSNKLYVQEQALTTIAFIAEAAKNKFIKYYDTLMPLLLNVLKVNNKDNSVLKGKCMECATLIGFAVGKEKFHEHSQELISILVALQNSDIDEDDALRSYLEQSWSRICRILGDDFVPLLPIVIPPLLITAKATQDVGLIEEEEAANFQQYPDWDVVQVQGKHIAIHTSVLDDKVSAMELLQSYATLLRGQFAVYVKEVMEEIALPSLDFYLHDGVRAAGATLIPILLSCLLAATGTQNEELVLLWHKASSKLIGGLMSEPMPEITQVYHNSLVNGIKVMGDNCLSEDQLAAFTKGVSANLTDTYERMQDRHGDGDEYNENIDEEEDFTDEDLLDEINKSIAAVLKTTNGHYLKNLENIWPMINTFLLDNEPILVIFALVVIGDLIQYGGEQTASMKNAFIPKVTECLISPDARIRQAASYIIGVCAQYAPSTYADVCIPTLDTLVQIVDFPGSKLEENRSSTENASAAIAKILYAYNSNIPNVDTYTANWFKTLPTITDKEAASFNYQFLSQLIENNSPIVCAQSNISAVVDSVIQALNERSLTEREGQTVISSVKKLLGFLPSSDAMAIFNRYPADIMEKVHKWFA

target: 3xFLAG-tagged wild-type Gsp1 (S. cerevisiae) (UniProt P32835); assay: affinity purification with mass spectrometry

binding, binds:
Srp1 (from UniProt Q02821 1-542)
Srm1 (GEF), S. cerevisiae, endogenous (from UniProt P21827 1-482)
Vps71 (from UniProt Q03433 1-280)
Kap95 (from UniProt Q06142 1-861)
B1
B2

Results are given in words; binding and its absence hold for the method and conditions named. In cells and extracts the contact can be indirect. A yes stands for co-enrichment or nearness to the bait. Other partners may have been found.
